The record followed here is publication PMC10698503, “Phosphatase specificity principles uncovered by MRBLE:Dephos and global substrate identification” (Molecular Systems Biology, 2023).

Sequences of proteins named here, by UniProt entry; tags and fusion partners are left off.
UniProt P63151: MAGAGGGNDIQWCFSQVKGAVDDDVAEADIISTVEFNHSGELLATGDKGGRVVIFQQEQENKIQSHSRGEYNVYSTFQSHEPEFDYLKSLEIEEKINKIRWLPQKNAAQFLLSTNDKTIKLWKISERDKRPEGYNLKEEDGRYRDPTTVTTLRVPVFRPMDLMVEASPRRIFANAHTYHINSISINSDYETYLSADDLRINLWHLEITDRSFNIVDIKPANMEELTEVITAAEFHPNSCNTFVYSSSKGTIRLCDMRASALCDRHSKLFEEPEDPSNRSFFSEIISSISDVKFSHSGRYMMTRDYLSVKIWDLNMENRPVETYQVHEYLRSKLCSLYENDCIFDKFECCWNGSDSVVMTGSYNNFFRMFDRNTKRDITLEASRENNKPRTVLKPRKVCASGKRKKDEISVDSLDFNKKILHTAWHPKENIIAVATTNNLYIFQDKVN
UniProt P49790: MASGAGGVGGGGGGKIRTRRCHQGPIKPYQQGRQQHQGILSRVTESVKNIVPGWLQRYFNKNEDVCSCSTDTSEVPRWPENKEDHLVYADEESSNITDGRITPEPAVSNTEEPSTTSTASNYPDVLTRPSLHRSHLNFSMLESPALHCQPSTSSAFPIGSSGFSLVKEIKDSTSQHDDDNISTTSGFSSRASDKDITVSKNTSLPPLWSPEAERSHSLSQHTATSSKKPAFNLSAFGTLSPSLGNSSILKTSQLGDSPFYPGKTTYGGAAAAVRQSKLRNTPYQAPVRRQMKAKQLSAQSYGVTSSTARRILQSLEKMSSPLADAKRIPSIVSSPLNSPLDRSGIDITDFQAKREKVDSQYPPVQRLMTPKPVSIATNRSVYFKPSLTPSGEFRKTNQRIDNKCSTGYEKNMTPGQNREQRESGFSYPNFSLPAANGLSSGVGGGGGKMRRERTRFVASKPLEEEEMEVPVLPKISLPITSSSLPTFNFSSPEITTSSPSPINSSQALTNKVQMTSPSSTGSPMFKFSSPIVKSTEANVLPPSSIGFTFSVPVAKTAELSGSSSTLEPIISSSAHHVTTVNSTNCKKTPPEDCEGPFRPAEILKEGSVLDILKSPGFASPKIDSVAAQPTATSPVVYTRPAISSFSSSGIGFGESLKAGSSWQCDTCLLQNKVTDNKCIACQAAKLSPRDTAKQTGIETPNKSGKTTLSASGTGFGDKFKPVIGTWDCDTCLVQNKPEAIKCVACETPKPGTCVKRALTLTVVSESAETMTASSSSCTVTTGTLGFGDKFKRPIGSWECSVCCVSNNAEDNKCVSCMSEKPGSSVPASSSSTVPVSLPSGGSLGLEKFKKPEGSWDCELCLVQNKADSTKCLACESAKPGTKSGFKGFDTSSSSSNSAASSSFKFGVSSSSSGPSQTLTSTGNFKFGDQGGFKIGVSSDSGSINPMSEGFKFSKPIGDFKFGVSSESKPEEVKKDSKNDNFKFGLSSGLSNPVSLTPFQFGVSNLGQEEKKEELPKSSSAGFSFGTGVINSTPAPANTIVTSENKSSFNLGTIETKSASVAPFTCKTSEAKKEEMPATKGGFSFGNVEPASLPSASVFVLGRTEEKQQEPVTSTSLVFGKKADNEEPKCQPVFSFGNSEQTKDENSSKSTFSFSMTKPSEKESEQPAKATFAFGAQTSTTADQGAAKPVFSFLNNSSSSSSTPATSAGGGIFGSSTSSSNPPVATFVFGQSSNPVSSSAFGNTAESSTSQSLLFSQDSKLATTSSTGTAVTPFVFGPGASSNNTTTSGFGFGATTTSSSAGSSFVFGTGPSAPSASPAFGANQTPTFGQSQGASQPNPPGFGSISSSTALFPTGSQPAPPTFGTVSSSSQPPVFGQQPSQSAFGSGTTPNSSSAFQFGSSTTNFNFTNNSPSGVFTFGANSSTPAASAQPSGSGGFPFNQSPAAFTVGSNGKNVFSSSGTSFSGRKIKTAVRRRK
UniProt P12270: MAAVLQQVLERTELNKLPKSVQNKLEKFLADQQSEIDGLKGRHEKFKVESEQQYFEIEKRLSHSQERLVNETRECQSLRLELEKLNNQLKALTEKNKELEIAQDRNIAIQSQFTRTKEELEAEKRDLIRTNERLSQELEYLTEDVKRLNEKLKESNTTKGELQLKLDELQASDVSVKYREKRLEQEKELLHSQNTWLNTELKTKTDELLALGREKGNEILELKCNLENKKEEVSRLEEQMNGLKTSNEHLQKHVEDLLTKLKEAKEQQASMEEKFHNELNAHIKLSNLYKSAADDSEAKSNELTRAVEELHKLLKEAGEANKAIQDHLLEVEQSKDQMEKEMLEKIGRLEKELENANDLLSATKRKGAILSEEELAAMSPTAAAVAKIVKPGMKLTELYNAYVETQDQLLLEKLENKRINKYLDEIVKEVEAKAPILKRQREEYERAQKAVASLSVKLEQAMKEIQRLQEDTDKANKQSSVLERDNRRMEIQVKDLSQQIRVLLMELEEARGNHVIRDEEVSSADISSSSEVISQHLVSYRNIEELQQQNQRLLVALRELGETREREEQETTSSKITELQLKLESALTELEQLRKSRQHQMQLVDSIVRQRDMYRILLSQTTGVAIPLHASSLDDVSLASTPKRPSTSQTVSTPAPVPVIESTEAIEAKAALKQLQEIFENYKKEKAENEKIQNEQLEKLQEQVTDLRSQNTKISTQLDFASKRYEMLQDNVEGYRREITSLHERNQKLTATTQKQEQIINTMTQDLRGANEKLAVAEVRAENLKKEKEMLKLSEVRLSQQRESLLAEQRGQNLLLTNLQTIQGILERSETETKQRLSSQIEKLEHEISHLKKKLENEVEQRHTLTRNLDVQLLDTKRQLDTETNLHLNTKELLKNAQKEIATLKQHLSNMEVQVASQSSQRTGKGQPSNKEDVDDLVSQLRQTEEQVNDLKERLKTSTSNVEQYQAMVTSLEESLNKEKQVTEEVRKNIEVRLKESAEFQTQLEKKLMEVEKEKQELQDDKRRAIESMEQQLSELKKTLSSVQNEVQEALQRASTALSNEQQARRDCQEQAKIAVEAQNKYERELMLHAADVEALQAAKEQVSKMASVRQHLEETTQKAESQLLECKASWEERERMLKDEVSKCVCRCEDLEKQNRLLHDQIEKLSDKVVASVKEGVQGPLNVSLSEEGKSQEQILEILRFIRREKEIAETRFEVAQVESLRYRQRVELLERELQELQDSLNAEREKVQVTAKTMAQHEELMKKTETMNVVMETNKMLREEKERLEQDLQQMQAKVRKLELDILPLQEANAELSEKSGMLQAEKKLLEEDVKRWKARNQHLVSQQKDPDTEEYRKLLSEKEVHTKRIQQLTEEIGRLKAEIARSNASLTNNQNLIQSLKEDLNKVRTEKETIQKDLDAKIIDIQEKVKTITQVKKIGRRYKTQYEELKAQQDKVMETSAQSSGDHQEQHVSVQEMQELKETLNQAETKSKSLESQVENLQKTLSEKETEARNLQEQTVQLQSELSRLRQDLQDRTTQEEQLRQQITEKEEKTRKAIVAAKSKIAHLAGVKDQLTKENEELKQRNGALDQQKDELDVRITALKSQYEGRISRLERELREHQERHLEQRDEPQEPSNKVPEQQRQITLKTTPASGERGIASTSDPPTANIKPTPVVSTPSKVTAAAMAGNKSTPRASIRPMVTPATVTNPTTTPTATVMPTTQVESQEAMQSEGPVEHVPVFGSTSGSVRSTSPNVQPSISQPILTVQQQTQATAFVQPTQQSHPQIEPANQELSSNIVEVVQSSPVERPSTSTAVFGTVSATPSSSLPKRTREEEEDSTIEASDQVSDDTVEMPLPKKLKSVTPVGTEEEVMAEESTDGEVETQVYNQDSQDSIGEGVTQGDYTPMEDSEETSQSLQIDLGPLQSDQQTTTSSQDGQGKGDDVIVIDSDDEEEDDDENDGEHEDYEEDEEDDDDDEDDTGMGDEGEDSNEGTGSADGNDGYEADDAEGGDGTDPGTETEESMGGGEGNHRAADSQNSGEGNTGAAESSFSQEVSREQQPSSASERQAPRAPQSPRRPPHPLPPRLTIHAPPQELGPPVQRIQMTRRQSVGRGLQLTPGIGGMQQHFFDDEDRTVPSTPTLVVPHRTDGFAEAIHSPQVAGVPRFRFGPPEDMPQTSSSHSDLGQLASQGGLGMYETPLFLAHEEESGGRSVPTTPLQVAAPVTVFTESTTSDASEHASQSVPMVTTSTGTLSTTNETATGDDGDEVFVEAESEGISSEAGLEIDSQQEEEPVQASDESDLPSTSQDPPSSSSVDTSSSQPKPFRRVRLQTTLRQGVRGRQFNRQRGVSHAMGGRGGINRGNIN

The assay concerns the target B55α, N-terminal fusion to YFP, BioID or TurboID (UniProt P63151). The assay is described as follows: affinity purification with mass spectrometry + proximity labelling; YFP-tagged B55α from nocodazole-arrested HeLa lysate on GFP-Trap beads, and BioID/TurboID fusions with biotin in cells; label-free LC-MS/MS; hit: at least twofold enrichment and P < 0.05 against the control.

No constants are given. Whether binding was seen depends on the method and setting. In cells and extracts the contact can be indirect. A yes stands for co-enrichment or nearness to the bait. Other partners may have been found.

In the case of Nup153 (from UniProt P49790 1-1475), the binding entry is reported as “binds”.

Turning to TPR (from UniProt P12270 1-2363), the binding result was “binds”.
